Test results from patent US7994280 (dated 2011).

Test: general procedure: Fmoc solid-phase peptide synthesis; Sieber; diisopropylcarbodiimide (dithio-3,3'-dipropionic acid coupling)
Conditions: late stage modification step

Q: With “(Mpa)-2-Har-Gly-Asp(tBu)-Trp(Boc)-Pro-Cys(S-tBu)-Sieber” as the substance, how does the step yield read?
A: >75%
